Measurements reported in PubChem BioAssay.
Inconclusive means that the source gave no clear call. Such entries were picked first, then a sample of the others. A potency beside an inconclusive call is a rough fit, not a confirmed value. The source made the active and inactive calls. No cut-off is given here; in the data, nearly all actives have AC50 up to about 26 µM.

assay: growth inhibition of DIPG glioma cells, dose response, cell-based, SU-DIPG-XVII, MIPE5.0, CellTiter-Glo, qHTS (AID 1347060); conditions: SU-DIPG-XVII viability, CellTiter-Glo ATP luminescence;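 for AC50: cells exposed to compound for 48 hours before viability readout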

| SMILES | AC50 | outcome |
| --- | --- | --- |
| O=C(c1ccc(/C=C/c2n[nH]c3ccccc23)cc1)N1CCNCC1 | active: 5.9 µM |  |
| CC(C)C[C@H](NC(=O)c1cc2ccccc2s1)C(=O)N1CCN(C(=O)[C@H](CO)NS(=O)(=O)c2ccc(Cl)cc2Cl)CC1 | inconclusive: 29.5 µM [cytotoxic] |  |
| CN(C)CCCNC(=O)c1ccc(-c2cc(O)c3ncccc3c2)cc1 | inconclusive: 29.5 µM [cytotoxic] |  |
| CCOC(=O)[C@H]1O[C@@H]1C(=O)N[C@@H](CC(C)C)C(=O)NCCC(C)C |  | inactive |
| CN(C)CCc1c[nH]c2ccc(CS(=O)(=O)N3CCCC3)cc12 |  | inactive |
| CN(C)CC(C)(C)CNc1nn2c(-c3ccccc3)nnc2cc1C1CCC1 |  | inactive |
| CC(=O)O[C@H]1C(=O)[C@@]2(C)C([C@H](OC(=O)c3ccccc3)[C@]3(O)C[C@H](OC(=O)[C@H](O)[C@@H](NC(=O)c4ccccc4)c4ccccc4)C(C)=C1C3(C)C)[C@]1(OC(C)=O)CO[C@@H]1C[C@@H]2O (some centres undefined) | active: 0.0059 µM |  |
| N=C(N)c1ccc(OCCCCCOc2ccc(C(=N)N)cc2)cc1 | inconclusive: 37.2 µM [cytotoxic] |  |
| COc1ccc(C(=O)CC2(O)C(=O)Nc3c(Cl)ccc(Cl)c32)cc1 (centres undefined) | inconclusive: 0.263 µM [cytotoxic] |  |
| CNCCCC12CCC(c3ccccc31)c1ccccc12 | inconclusive: 33.2 µM [cytotoxic] |  |
| C[C@@H]1C[C@H]2[C@@H]3CCC4=CC(=O)C=C[C@]4(C)[C@@]3(Cl)[C@@H](O)C[C@]2(C)[C@@]1(OC(=O)c1ccco1)C(=O)CCl | inconclusive: 37.2 µM [cytotoxic] |  |
| O=C1CN2Cc3c(ccc(Cl)c3Cl)N=C2N1 |  | inactive |
| CN(C)c1ccc(C(=C2C=CC(=[N+](C)C)C=C2)c2ccc(N(C)C)cc2)cc1 | active: 1.48 µM |  |
| CCOC(=O)C1=C(O)C(=O)N(Cc2ccccc2)C1 |  | inactive |
| CCN(CC)CCOc1ccc(Nc2ncc3cc(-c4c(Cl)cccc4Cl)c(=O)n(C)c3n2)cc1 | active: 0.417 µM |  |
| NCC1CCC(C(=O)O)CC1 (centres undefined) |  | inactive |
| CC(C)C[C@H](NC(=O)CNC(=O)c1cc(Cl)ccc1Cl)B(O)O | active: 0.166 µM |  |
| CN1CCN(C2=Nc3cc(Cl)ccc3Nc3ccccc32)CC1 | inconclusive: 37.2 µM [cytotoxic] |  |
| COc1cc2nccc(Oc3ccc(NC(=O)NC4CC4)c(Cl)c3)c2cc1C(N)=O | active: 2.09 µM |  |
| OCCN(CCO)c1nc(N2CCCCC2)c2nc(N(CCO)CCO)nc(N3CCCCC3)c2n1 | inconclusive: 16.6 µM [cytotoxic] |  |

| SMILES | AC50 | outcome |
| --- | --- | --- |
| CC1=C(C)C(=O)C(C(CCCCCC(=O)O)c2ccccc2)=C(C)C1=O (centres undefined) |  | inactive |
| Cn1c(=O)c(Oc2ccc(F)cc2F)cc2cnc(NC3CCOCC3)nc21 | inconclusive: 16.6 µM [cytotoxic] |  |
| Cc1cnc(C(=O)NCCc2ccc(S(=O)(=O)NC(=O)NC3CCCCC3)cc2)cn1 | inconclusive: 5.9 µM [cytotoxic] |  |
| O=C1CCCC(=O)C1C(=O)c1ccc(C(F)(F)F)cc1[N+](=O)[O-] |  | inactive |
| CCC[C@@H](C=O)NC(=O)[C@H](CC(C)C)NC(=O)[C@H](CC(C)C)NC(=O)OCc1ccccc1 | active: 0.332 µM |  |
| CC(=O)OCC(=O)[C@@]1(O)CC[C@H]2[C@@H]3CCC4=CC(=O)CC[C@]4(C)[C@H]3C(=O)C[C@@]21C | inconclusive: 9.34 µM [cytotoxic] |  |
| Cn1cnc2c(F)c(Nc3ccc(Br)cc3F)c(C(=O)NOCCO)cc21 | active: 3.72 µM |  |
| CC(C)C[C@@H](C=O)NC(=O)[C@H](CC(C)C)NC(=O)[C@H](CC(C)C)NC(=O)OCc1ccccc1 | active: 0.468 µM |  |
| Cc1c(-c2ccc(O)cc2)n(Cc2ccc(OCCN3CCCCCC3)cc2)c2ccc(O)cc12 | inconclusive: 18.6 µM [cytotoxic] |  |
| Cc1c(Cn2c(C)nc3c(C(=O)O)cc(N4CCOCC4)cc32)cccc1C(F)(F)F |  | inactive |
| CC(C)(C#N)c1cc(Cn2cncn2)cc(C(C)(C)C#N)c1 |  | inactive |
| COc1cc2ncnc(-n3nc(-c4ccccn4)nc3N)c2cc1OC | inconclusive: 7.42 µM [cytotoxic] |  |
| NS(=O)(=O)c1cc2c(cc1Cl)NC(C(Cl)Cl)NS2(=O)=O (centres undefined) |  | inactive |
| NC(=O)c1ccc2[nH]ccc2c1 |  | inactive |
| COc1ccc(OC)c(-c2nnc3ccc(-c4ccc(OC)c(O[C@@H]5CCOC5)c4)nn23)c1 | active: 2.95 µM |  |
| CC(C(=O)O)c1ccc(-c2ccccc2)c(F)c1 (centres undefined) | inconclusive: 26.3 µM [cytotoxic] |  |
| Cc1ccc(NC(=O)c2ccc(CN3CCN(C)CC3)cc2)cc1Nc1nccc(-c2cccnc2)n1 | inconclusive: 0.00118 µM |  |
| CCCn1c(=O)c2[nH]c(-c3cnn(Cc4cccc(C(F)(F)F)c4)c3)nc2n(CC)c1=O | inconclusive: 10.5 µM [cytotoxic] |  |
| CCCc1cc(C(N)=S)ccn1 |  | inactive |

Given tab-delimited: part of the list above
SMILES	AC50	outcome
Cn1cnc2c(F)c(Nc3ccc(Br)cc3F)c(C(=O)NOCCO)cc21	active: 3.72 µM	
Cc1c(-c2ccc(O)cc2)n(Cc2ccc(OCCN3CCCCCC3)cc2)c2ccc(O)cc12	inconclusive: 18.6 µM [cytotoxic]	
